Measurements as given in PubChem BioAssay AID540335 (Broad Institute, 2011).
Screen size: about 1,300 compounds; about 270 (21%) were called active.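 Rule for the calls: active = dose-dependent rise or fall in viability, either side of zero, with half-maximal concentration at or below a set limit; inconclusive = flat curve at 30 to 70% viability loss, or poor fit; inactive = flat within 30% either way, or potency beyond limit.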 This is one part of the list. Results with a measured potency or affinity are listed apart.

Assay: A375 melanoma cell viability reduction, dose response, counter-screen for MITF modulator project, cherry-pick samples, set 2 (AID 540335);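 note: A375 human melanoma cells which do not depend on MITF; 0% = median of neutral control wells and 100% = double that signal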
Details: CellTiter-Glo ATP luminescence, 24 h; at 35 µM (top of the series)

Row | Structure (SMILES) | activity change, negative = decreased viability
1 | CCN(CC)Cc1c(O)ccc2c1O/C(=C\C=C\c1ccccc1)C2=O | inactive: 0.171%
2 | Cc1ccccc1OCC(=O)Nc1cccc(C(=O)O)c1 | inactive: 5.58%
3 | COC(=O)c1c(NC(=O)c2nc3ccccc3s2)sc2c1CC(C)(C)NC2(C)C | inactive: -78.2%
4 | Cc1cc(C(=O)N/N=C/c2ccc([N+](=O)[O-])o2)c(C)o1 | inactive: -13.2%
5 | Cn1c(/C=C/c2cccc([N+](=O)[O-])c2)c([N+](=O)[O-])c(=O)n(C)c1=O | inactive: 11.9%
6 | CN(C)/C=N/c1ncc(C(=O)c2ccccc2)s1 | inactive: 7.2%
7 | O=[N+]([O-])c1ccc(/C=N/n2cnc3ccccc32)s1 | inactive: -23.5%
8 | Cc1ccc2c(c1)Oc1ccc(NC(=O)CCl)cc1C(=O)N2 | inactive: -29.5%
9 | COc1cc(C(=O)Oc2c(CN3CCOCC3)cc(Cl)c3cccnc23)cc(OC)c1OC | inactive: -24.5%
10 | CC1(C)CC(NC(=O)c2ccc(Cl)c(S(=O)(=O)N(Cc3ccccc3)c3ccccc3)c2)CC(C)(C)N1 | inactive: -56.2%
11 | O=C(CNc1ccc2ccccc2c1)N/N=C/c1ccc([N+](=O)[O-])o1 | inactive: -2.61%
12 | O=C(NCc1ccccc1)NC1(C(=O)Nc2ccc3c(c2)OCCO3)CCCCC1 | inactive: -5.78%
13 | Nc1ccc(-c2nc3c(Cl)cc(N)cc3[nH]2)cc1 | inactive: -11%
14 | CCOc1ccc(NC(=O)CCC(=O)N/N=C/c2ccc([N+](=O)[O-])s2)cc1 | inactive: 1.66%
15 | Cn1c(COc2ccccc2Br)nc2ccccc21 | inactive: -3.81%
16 | CN(C)CCCNC(=O)/C(=C\c1ccc(-c2ccc(Br)cc2)o1)NC(=O)c1ccccc1 | inactive: -70.8%
17 | Cc1c(C=O)c2cc(OCc3ccccc3)ccc2n1C | inactive: 6.35%
18 | CCOC(=O)c1cnc2c(ccc3ccccc32)c1N | inactive: 7.59%
19 | CCc1ccc(Nc2nc(C)cc(C)n2)cc1 | inactive: -7.25%
20 | O=C1CN(c2ccccc2)C(=S)N1C(=O)c1ccc(Br)cc1 | inactive: 2.51%

Row | Structure (SMILES) | activity change, negative = decreased viability
21 | CCN(CC)S(=O)(=O)c1cccc(C(=O)N/N=C/c2ccc([N+](=O)[O-])o2)c1 | inactive: -19.6%
22 | CC(Oc1ccc(F)cc1)C(=O)Nc1nc(-c2ccccn2)cs1 (stereo not given) | inactive: -17.3%
23 | CCOc1ccc2nc(C)cc(Nc3cccc([N+](=O)[O-])c3)c2c1 | inactive: -48.8%
24 | CCOc1ccc(-n2c(-c3ccc(Br)cc3)c[n+]3c2CCCCC3)cc1 | inactive: -24%
25 | O=C(Nc1ccc2nc(-c3ccccc3)[nH]c2c1)c1ccco1 | inactive: -0.11%
26 | CC(=O)Nc1ccc(NC(=O)c2nc(S(=O)(=O)Cc3ccccc3)ncc2Cl)cc1 | inactive: -26.8%
27 | O=C(COC(=O)c1ccc(F)c([N+](=O)[O-])c1)NC(=O)NCc1ccccc1 | inactive: -14.4%
28 | CCOc1ccc(-c2ccc(SC)nn2)cc1 | inactive: -38.4%
29 | O=C(Nc1ccc2c(c1)OCCO2)c1ccoc1 | inactive: 6.88%
30 | CCCCN(CC)CCCNC(=O)c1cc2c(=O)n(CC)c3ccccc3c2s1 | inactive: -4.43%
31 | Cc1ccc(OCCNCc2ccccc2)c(C)c1 | inactive: 3.67%
32 | CC1CN(N=Cc2ccc([N+](=O)[O-])o2)C(=N)O1 (stereo not given) | inactive: -4.37%
33 | CC(C)S(=O)(=O)c1csc(C(=O)Nc2ccc(F)cc2)c1N | inactive: -0.729%
34 | COc1ccc2oc(=N)c(C(=O)Nc3ccccc3Cl)cc2c1 | inactive: 7.03%
35 | CN(C(=O)/C=C/c1ccc([N+](=O)[O-])s1)c1ccccc1 | inactive: -12.6%
36 | COc1ccccc1N(C(=O)CCl)c1cn(C(C)=O)c2ccccc12 | inactive: -14%
37 | Cc1ccc(C(=O)NC2=NCCS2)cc1Cl | inactive: -0.554%
38 | COc1ccc(NC(=O)C2COc3ccccc3O2)cc1 (stereo not given) | inactive: -6.15%
39 | CN1CCN(CCCOc2ccc(-c3ccccc3)cc2)CC1 | inactive: -0.67%
40 | Cc1cc(C(=O)Nc2cccc(C(=O)O)c2)oc1C | inactive: -8.99%

Row | Structure (SMILES) | activity change, negative = decreased viability
41 | O=C(Cn1ncc(Cl)c(Cl)c1=O)N1CCN(Cc2ccccc2)CC1 | inactive: 62.3%
42 | CCOC(=O)C1(Cc2ccccc2)CCCN(CCCn2cccn2)C1 (stereo not given) | inactive: 2.85%
43 | O=[N+]([O-])c1c(NCCCO)cc(Sc2ccc(Cl)cc2)c2nonc12 | inactive: -22.9%
44 | CCSc1nc2c(cnn2-c2ccccc2)c(=O)n1N | inactive: -0.732%
45 | Cc1ccc(C(=O)N/N=C\c2ccc([N+](=O)[O-])s2)cn1 | inactive: -30.2%
46 | Cc1ccc(NC(=O)Cc2noc3ccccc23)cc1 | inactive: 12.6%
47 | CCN1CCN(/C=N/c2nc3c(s2)CCCC3)CC1 | inactive: 3.19%
48 | Cc1ccc(-c2c[n+](Cc3ccc(Cl)c(Cl)c3)c3n2CCC3)cc1 | inactive: -14.8%
49 | COc1cccc(CNc2nc3ccccc3n2C)c1O | inactive: 4.14%
50 | O=C(CSc1ccccn1)c1ccc2c(c1)OCO2 | inactive: 9.9%
51 | O=C(CNC(=O)c1ccccc1)N/N=C/c1ccc([N+](=O)[O-])s1 | inactive: -17.8%
52 | Cc1ccccc1Cn1c(=N)n(CC(=O)c2ccc([N+](=O)[O-])cc2)c2ccccc21 | inactive: -72.3%
53 | CC(C)n1cc(/C=C/c2cc[n+](C)cc2)c2ccccc21 | inactive: -9.9%
54 | Cn1c(SCC(=O)N/N=C/c2ccc([N+](=O)[O-])s2)nnc1-c1ccccc1 | inactive: -30.7%
55 | CCOc1cc(/C=C2/NC(=S)NC2=O)ccc1OCc1ccc([N+](=O)[O-])cc1 | inactive: -36.1%
56 | Cc1ccc(NC(=O)c2cc3cccc([N+](=O)[O-])c3[nH]2)cc1 | inactive: 4.69%
57 | Cc1ccc(-n2nnnc2Sc2nc([N+](=O)[O-])nn2C)c(C)c1 | inactive: -0.377%
58 | NNC(=O)c1cc2ccccc2cc1O | inactive: 3.09%
59 | COc1ccc(C(C(=O)NC2CCCCC2)N(C(=O)CCl)c2ccc(OC)cc2)cc1 (stereo not given) | inactive: -7.56%
60 | C=C1C(=O)O[C@@H]2[C@H]1[C@@H](OC(=O)/C(C)=C/C)C/C(C)=C\C(=O)/C=C(\C)[C@@H]2O | inactive: 75.7%
